This note sets out measurements from the supplement of paper PMC4862054.

Assay in all cases: normalised response (% of control), CellTox Green; higher = less cell death (100 = DMSO, 0 = benzethonium chloride kill control)
What all share (settings): incubation time: 72 h

For one assay, the system named is BT-474. On the procedure: (§1)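 DSRT, 72 h incubation, CellTox Green / CellTiter-Glo readout. Signal is normalised to DMSO and benzethonium chloride controls. Value is the normalised response at the lowest tested concentration.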
For the next assay, the system named is BT-549. As for the experimental part: as §1
A further assay relates to CAL-120. On the procedure:
as §1

For the next assay, the system named is CAL-148. As for the experimental part:
as §1

A further assay has as its system CAL-51. As for the experimental part:
as §1

In another assay the test system is CAL-85-1. As for the experimental part: as §1
The subject of a further assay is DU-4475. On the procedure: as §1
The subject of another assay is HCC1599. On the procedure: as §1
The subject of a further assay is HCC1937. As for the experimental part: as §1
The next assay concerns HDQ-P1. As for the experimental part: as §1
The next assay relates to Hs578T. As for the experimental part:
as §1

The test system of a further assay is MCF-10A. As for the experimental part: as §1
In a further assay the test system is MDA-MB-231. As for the experimental part:
as §1

The test system of a further assay is MDA-MB-436. As for the experimental part: as §1
For the next assay, the system named is MDA-MB-453. As for the experimental part:
as §1

For a further assay, the system named is MFM-223. On the procedure: as §1
A further assay relates to HCC1143. As for the experimental part:
as §1

Another assay deals with MDA-MB-468. On the procedure: as §1

Small differences around the control level are noise.

`Nc1nccc(-c2c(-c3ccc(F)cc3)ncn2C2CCCCC2)n1` (1 nM): the normalised response in the assay on BT-474 was 103%; in the assay on BT-549, 93.3%; in the assay on CAL-120, 102%; with CAL-148, 97.7%; in the assay on CAL-51, 115%; in the assay on CAL-85-1 it was 97.2%. The normalised response with DU-4475 amounted to 108%; in the assay on HCC1599, 112%; in the assay on HCC1937 it was 62.5%; in the assay on HDQ-P1, 110%; with Hs578T, 95.6%; in the assay with MCF-10A, 112%. The normalised response worked out at 124% in the assay on MDA-MB-231, 96.6% with MDA-MB-436, 105% with MDA-MB-453 and 101% in the assay on MFM-223.
For the molecule `Cc1sc2c(c1C)C(c1ccc(Cl)cc1)=N[C@@H](CC(=O)OC(C)(C)C)c1nnc(C)n1-2` [(+)JQ1] (1 nM), the normalised response stood at 98.7% in the assay with BT-474; 106% in the assay with BT-549; 100% in the assay on CAL-120; 104% in the assay with CAL-51; 101% in the assay on CAL-85-1; 102% with DU-4475. Further, the normalised response turned out to be 115% with HCC1143; 101% in the assay with HCC1599; 101% with HDQ-P1; 102% with Hs578T; 93% in the assay with MCF-10A; 112% with MDA-MB-231. Further, the normalised response in the assay on MDA-MB-436 turned out to be 80.3%; in the assay on MDA-MB-453, 106%; in the assay with MDA-MB-468 it was 70.7%; in the assay with MFM-223, 103%.
For `O=C(/C=C/c1cccc(S(=O)(=O)Nc2ccccc2)c1)NO` [Belinostat] (1 nM), the normalised response in the assay on BT-474 turned out to be 98.4%; in the assay with BT-549 it was 92.2%; in the assay on CAL-120, 99.1%; with CAL-148, 104%; in the assay on CAL-51, 99%; in the assay on CAL-85-1, 101%. Moreover, the normalised response with DU-4475 is 95.8%; in the assay with HCC1599 it was 93.7%; with HCC1937, 100%; in the assay with HDQ-P1 it was 103%; in the assay on Hs578T, 96%; with MCF-10A, 65.9%. Further, the normalised response was found to be 86.2% in the assay on MDA-MB-231; 68% in the assay with MDA-MB-436; 108% in the assay on MDA-MB-453; 97.5% in the assay with MDA-MB-468; 104% in the assay on MFM-223.
With `C=C1C[C@@H]2[C@H](CC[C@]3(C)C(=O)CC[C@@H]23)[C@@]2(C)C=CC(=O)C=C12` [Exemestane] (1 nM), the normalised response in the assay on BT-474 turned out to be 102%; in the assay on BT-549, 94.9%; in the assay with CAL-120, 100%; with CAL-148, 85.7%; with CAL-51, 112%; in the assay on CAL-85-1 it was 104%. The normalised response stood at 111% in the assay with DU-4475; 126% in the assay with HCC1143; 115% in the assay with HCC1599; 99.6% in the assay on HDQ-P1; 114% in the assay with Hs578T; 104% in the assay with MCF-10A. Further, the normalised response with MDA-MB-231 worked out at 119%; with MDA-MB-436 it was 105%; with MDA-MB-468 it was 79.5%; in the assay with MFM-223 it was 101%.
As to `CC(C)Cn1cnc2c(N)nc3ccccc3c21` [Imiquimod] (0.25 nM), the normalised response in the assay with BT-474 was found to be 96.7%; with BT-549, 93.1%; in the assay on CAL-120, 102%; with CAL-148, 95.2%; in the assay with CAL-51 it was 103%; with CAL-85-1, 95.2%. Further, the normalised response came out at 104% with DU-4475; 108% in the assay with HCC1599; 96.8% in the assay on HDQ-P1; 106% in the assay with Hs578T; 106% in the assay with MCF-10A; 78.4% with MDA-MB-231. In addition, the normalised response turned out to be 95.9% with MDA-MB-436, 107% in the assay on MDA-MB-453, 115% in the assay with MDA-MB-468 and 103% in the assay with MFM-223.
For the molecule `Cc1ccc(NC(=O)c2ccc(CN3CCN(C)CC3)cc2)cc1Nc1nc(-c2cccnc2)cs1` [Masitinib] (1 nM), the normalised response with BT-474 worked out at 104%; in the assay with BT-549, 102%; in the assay with CAL-120, 101%; with CAL-148, 101%; in the assay on CAL-51, 89.8%; in the assay with CAL-85-1, 105%. The normalised response with DU-4475 stood at 101%; in the assay with HCC1143, 99.8%; in the assay on HCC1599 it was 94.4%; in the assay with HCC1937, 104%; with HDQ-P1, 99.1%; in the assay with Hs578T it was 107%. The normalised response in the assay on MDA-MB-231 was found to be 101%; in the assay with MDA-MB-436, 92.9%; with MDA-MB-453 it was 107%; in the assay with MDA-MB-468 it was 89.2%; in the assay with MFM-223, 96.5%.
As for `Cc1ccc(C(=O)Nc2ccc(CN3CCN(C)CC3)c(C(F)(F)F)c2)cc1C#Cc1cnc2cccnn12` [Ponatinib] (0.1 nM), the normalised response with BT-474 came out at 99.5%; in the assay on BT-549 it was 97.3%; with CAL-120, 98.5%; in the assay on CAL-148, 96.9%; in the assay on CAL-51, 105%; with CAL-85-1, 98.5%. Further, the normalised response in the assay with DU-4475 was determined as 101%; in the assay with HCC1143, 79.4%; in the assay with HCC1599 it was 97.3%; with HCC1937, 81.9%; in the assay with Hs578T it was 108%; with MCF-10A, 105%. For the same molecule, the normalised response with MDA-MB-231 is 102%; in the assay with MDA-MB-436 it was 90.6%; in the assay on MDA-MB-453, 92.1%; with MDA-MB-468, 85.2%; in the assay with MFM-223, 103%.
Consider `CCC(C)(C)C(=O)O[C@H]1C[C@@H](C)C=C2C=C[C@H](C)[C@H](CC[C@@H]3C[C@@H](O)CC(=O)O3)[C@H]21` [Simvastatin] (1 nM), for which the normalised response in the assay with BT-474 came to 97.7%; in the assay on BT-549, 94.5%; in the assay on CAL-120, 102%; in the assay with CAL-148, 92.9%; in the assay on CAL-51, 110%; in the assay with DU-4475, 103%. The normalised response with HCC1143 was 108%; in the assay with HCC1599, 93%; in the assay on HDQ-P1, 99.7%; in the assay with Hs578T it was 89.8%; in the assay with MCF-10A, 109%; in the assay on MDA-MB-231, 105%. For the same molecule, the normalised response was found to be 81.9% in the assay with MDA-MB-436, 100% with MDA-MB-453, 109% with MDA-MB-468 and 103% in the assay with MFM-223.
`CCS(=O)(=O)c1cccc(-c2cc(C(=O)NC3CCN(C)CC3)c(C)c3[nH]c4ncc(C)cc4c23)c1` [TAK-901] (0.1 nM): the normalised response was found to be 102% with BT-474; 89.7% in the assay with BT-549; 103% with CAL-120; 105% in the assay on CAL-148; 126% in the assay on CAL-51; 102% in the assay on CAL-85-1. Besides, the normalised response amounted to 103% with DU-4475; 100% in the assay with HCC1599; 108% in the assay on HCC1937; 74.1% in the assay with HDQ-P1; 93.2% with Hs578T; 63.5% in the assay on MCF-10A. For the same molecule, the normalised response in the assay on MDA-MB-231 amounted to 111%; in the assay with MDA-MB-436, 98.3%; in the assay with MDA-MB-453, 98.9%; in the assay on MDA-MB-468, 75%; in the assay with MFM-223, 103%.
